Data: article PMC8654936
Results are given in words; binding and its absence hold for the method and conditions named. Binding seen in cells or lysates may run through a third protein. Binding can be weak; no strength is given.

Chains of the proteins cited; added tags and fusions are not shown. Lines headed by an entry give the natural chain unless they say otherwise; changes in a name come on top. Residues count along the entry.
UniProt P61769: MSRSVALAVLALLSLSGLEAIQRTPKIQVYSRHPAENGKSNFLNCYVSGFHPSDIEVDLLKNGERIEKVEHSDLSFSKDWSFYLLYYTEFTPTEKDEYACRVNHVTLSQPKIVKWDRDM
UniProt O15553: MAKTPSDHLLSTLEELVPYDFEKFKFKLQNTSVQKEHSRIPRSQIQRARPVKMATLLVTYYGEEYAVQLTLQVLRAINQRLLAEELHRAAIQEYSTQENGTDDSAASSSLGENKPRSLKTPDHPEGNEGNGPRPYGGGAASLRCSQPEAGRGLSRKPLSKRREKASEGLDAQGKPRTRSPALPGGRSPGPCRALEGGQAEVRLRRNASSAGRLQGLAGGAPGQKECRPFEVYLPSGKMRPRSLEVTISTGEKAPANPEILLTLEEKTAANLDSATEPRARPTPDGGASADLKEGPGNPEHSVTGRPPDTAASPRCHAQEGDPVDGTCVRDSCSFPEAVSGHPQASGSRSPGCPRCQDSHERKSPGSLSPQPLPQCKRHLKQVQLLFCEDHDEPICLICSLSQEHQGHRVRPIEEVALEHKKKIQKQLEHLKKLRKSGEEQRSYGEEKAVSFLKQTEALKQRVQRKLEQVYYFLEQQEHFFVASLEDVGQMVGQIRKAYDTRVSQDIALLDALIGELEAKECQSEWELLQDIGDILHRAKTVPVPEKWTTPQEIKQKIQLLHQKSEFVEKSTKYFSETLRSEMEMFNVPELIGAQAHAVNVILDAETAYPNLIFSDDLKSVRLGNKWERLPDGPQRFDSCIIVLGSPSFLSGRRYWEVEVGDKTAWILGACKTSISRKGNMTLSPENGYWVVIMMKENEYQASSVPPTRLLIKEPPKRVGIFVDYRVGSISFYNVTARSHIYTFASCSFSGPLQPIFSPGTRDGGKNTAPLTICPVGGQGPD
UniProt P29466, residues 120-297: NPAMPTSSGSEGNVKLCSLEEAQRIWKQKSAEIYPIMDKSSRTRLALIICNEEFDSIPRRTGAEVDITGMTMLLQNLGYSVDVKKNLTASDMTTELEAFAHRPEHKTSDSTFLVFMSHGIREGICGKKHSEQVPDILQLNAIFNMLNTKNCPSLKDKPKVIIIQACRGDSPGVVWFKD

How the values were obtained:
[1] = molecular target: V5-tagged β2-microglobulin (human) (UniProt P61769); assay: co-IP; reciprocal: Lenti-X 293T cells co-transfected; same lysis buffer; anti-V5 Ab magnet beads, 1 h at 4 °C; blot for FLAG
[2] = molecular target: FLAG-tagged pyrin PRY/SPRY domain (exon 10) (human) (UniProt O15553); assay: co-IP; Lenti-X 293T cells co-transfected; lysis buffer 20 mM Tris–HCl pH 6.0, 120 mM NaCl, 5% glycerol, 0.5% Triton X-100; anti-FLAG Ab agarose beads, 1 h at 4 °C; blot for V5; some samples with or without co-expressed V5-β2MG

| binding [1] | binding [2] | Substance |
| --- | --- | --- |
| binds | – | FLAG-tagged pyrin PRY/SPRY domain (exon 10) (from UniProt O15553) (domain or fragment) |
| – | binds | V5-tagged caspase-1 p20 subunit (from UniProt P29466 120-297) (domain or fragment) |
| – | binds | V5-tagged β2-microglobulin (from UniProt P61769 21-119) |
